Measured values as given in patent publication KR20140086355A, “콜치신 유도체를 유효성분으로 포함하는 암의 예방 또는 치료용 조성물” (한국화학연구원, priority 2012, dated 2014).

Columns and labels:
[1] = system: PLK-1; assay: Western blot of Plk-1 in HCT116 cells; type: cell-based; conditions: Western blot of selected compounds, HCT116 (Fig. 2: 1μM, 48 h; Fig. 8)
[2] = system: human colorectal cancer cells HCT116 [인간 대장암 세포, HCT116]; assay: alamarBlue cell proliferation assay, human colorectal cancer cells HCT116; type: cell-based; conditions: HCT-116

## COc1cc2c(c(OC)c1OC)-c1ccc(OC)c(=O)cc1[C@@H](NC(C)=O)CC2 [H11-G04, Colchicine]
[1]
  Plk-1 inhibition in selection of screened compounds: Plk-1을 억제하고
[2]; Table 1, inhibition of human colorectal cancer cell proliferation, 48 h
  IC50: 4 µM
[2]; Homo sapiens, Table 2, structures and activity of colchicine derivatives
  IC50: 4 µM
